Tests used:
[1] = Emitted dose from dry powder inhalers (Nephele tube, HPLC); conditions: jet-milled powder; Diskhaler; 60 L/min
[2] = Fine particle fraction, single-dose Acu-Breathe inhaler into Andersen impactor (stages 1-5); conditions: neat micronized powder; flow rates 30 to 75 L/min; FIG. 1

Row | SMILES | Emitted Dose, Average [1] | fine particle fraction versus virtually anhydrous material [2]
1 | C[C@]12CC[C@H](OS(=O)(=O)[O-])CC1=CC[C@@H]1[C@@H]2CC[C@]2(C)C(=O)CC[C@@H]12.[Na+] [Anhydrous DHEA-S] | 53.4% | 
2 | CC12CCC3C(CC=C4CC(OS(=O)(=O)[O-])CCC43C)C1CCC2=O.[Na+] (centres unmarked) [DHEA-S dihydrate, dehydroepiandrosterone sodium sulfate dihydrate] |  | higher fine particle fraction

From patent US20090087389A1, “DEHYDROEPIAN[…] DIHYDRATE INHALATION COMPOSITIONS AND METHODS” ([…] PHARMACEUTICALS, LLC., priority 2002, published 2009)
